PubChem BioAssay AID1159578 | Peter MacCallum Cancer Centre | 2015

- Purpose: 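Knock-downs that alter how fast lymphatic endothelial cells migrate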 (primary screen)
- Cell system: human lymphatic endothelial cells
- Reagent: siRNA pool against human genes, 40 nM
- Duration: 48 h after transfection
- Read-out: 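Cells stained with dye and imaged after a scratch; covered wound area and nuclei counted, duplicates averaged, migration set against mock wells and turned into a robust z-score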
- Reading the numbers: migration robust z-score: higher = faster migration into the scratch; migration relative to mock: higher = more scratch area covered than mock; nuclei per well: higher = more cells in the well
- Rule for the call: 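Migration changed when robust z exceeds 2 or falls below -2 and mean nuclei number is at least 3300; otherwise not called changed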
- Calls: active = migration changed; inactive = no migration change, or too few cells
The deposit covers about 18,000 reagents; below is an unselected part. Over the whole deposit, about 1,030 (5.7%) were called active. 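Inactive calls also include pools with fewer than 3300 nuclei, whose migration was not assessed.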 Raw values are not corrected between plates. A number with no mark means an inactive call.

| gene | migration robust z-score | migration class with cell-count check | migration relative to mock | nuclei per well, duplicate mean |
| --- | --- | --- | --- | --- |
| SP100 (SP100 nuclear body protein) | -0.59 | migration z between -2 and 2; enough cells | 0.73 | 4642 |
| USP16 (ubiquitin specific peptidase 16) | -2.18 (active) | migration z below -2; enough cells | 0.38 | 4284 |
| IFNL1 (interferon lambda 1) | -0.18 | migration z between -2 and 2; enough cells | 0.84 | 5496 |
| PATZ1 (POZ/BTB and AT hook containing zinc finger 1) | 1.5 | migration z between -2 and 2; enough cells | 1.09 | 5158 |
| CDK11B (cyclin dependent kinase 11B) | -2.13 | under 3300 nuclei; migration not judged | 0.4 | 3069 |
| EIF4EBP3 | -0.55 | under 3300 nuclei; migration not judged | 0.74 | 3175 |
| LRRC8C (leucine rich repeat containing 8 VRAC subunit C) | -0.77 | migration z between -2 and 2; enough cells | 0.68 | 4709 |
| KRT27 (keratin 27) | -0.78 | migration z between -2 and 2; enough cells | 0.68 | 3906 |
| RNPEPL1 (arginyl aminopeptidase like 1) | 0.44 | migration z between -2 and 2; enough cells | 0.89 | 5026 |
| MAP1A (microtubule associated protein 1A) | -0.66 | migration z between -2 and 2; enough cells | 0.72 | 5424 |
| AP1M2 (adaptor related protein complex 1 subunit mu 2) | -0.47 | migration z between -2 and 2; enough cells | 0.76 | 6208 |
| SVBP (small vasohibin binding protein) | -0.76 | migration z between -2 and 2; enough cells | 0.68 | 6570 |
| CELSR1 (cadherin EGF LAG seven-pass G-type receptor 1) | 0.16 | migration z between -2 and 2; enough cells | 0.84 | 5368 |
| SLC39A5 | 0.85 | migration z between -2 and 2; enough cells | 1.11 | 4716 |
| FAHD2A (fumarylacetoacetate hydrolase domain containing 2A) | -1.15 | migration z between -2 and 2; enough cells | 0.58 | 6166 |
| TMEM164 (transmembrane protein 164) | -0.2 | migration z between -2 and 2; enough cells | 0.83 | 3824 |
| PTPRU (protein tyrosine phosphatase receptor type U) | -1.79 | migration z between -2 and 2; enough cells | 0.46 | 6772 |
| VPS28 (VPS28 subunit of ESCRT-I) | 0.02 | migration z between -2 and 2; enough cells | 0.89 | 5022 |
| AK5 (adenylate kinase 5) | -1.17 | under 3300 nuclei; migration not judged | 0.58 | 2968 |
| GPR62 (G protein-coupled receptor 62) | -0.24 | migration z between -2 and 2; enough cells | 0.76 | 7400 |
| SLC71A1 | 1.5 | migration z between -2 and 2; enough cells | 1.1 | 6240 |
| DCUN1D4 (defective in cullin neddylation 1 domain containing 4) | 1.45 | migration z between -2 and 2; enough cells | 1.08 | 5220 |
| LRRC75B (leucine rich repeat containing 75B) | -0.96 | migration z between -2 and 2; enough cells | 0.64 | 5444 |
| ARFGEF2 (ARF guanine nucleotide exchange factor 2) | 0.6 | migration z between -2 and 2; enough cells | 1.04 | 5872 |
| SEPTIN9 (septin 9) | 0.34 | migration z between -2 and 2; enough cells | 0.87 | 5174 |
| GINM1 (glycosylated integral membrane protein 1) | 1.69 | migration z between -2 and 2; enough cells | 1.33 | 4788 |
| RASSF8 (Ras association domain family member 8) | -0.38 | migration z between -2 and 2; enough cells | 0.79 | 5604 |
| EIF3F (eukaryotic translation initiation factor 3 subunit F) | -1.24 | migration z between -2 and 2; enough cells | 0.56 | 6852 |
| SIRPB1 (signal regulatory protein beta 1) | -1.85 | migration z between -2 and 2; enough cells | 0.41 | 3840 |
| COMMD2 (COMM domain containing 2) | 0.45 | migration z between -2 and 2; enough cells | 1 | 5716 |
| PRKCB (protein kinase C beta) | -1.04 | migration z between -2 and 2; enough cells | 0.6 | 5840 |
| EIF3C (eukaryotic translation initiation factor 3 subunit C) | -2.18 (active) | migration z below -2; enough cells | 0.38 | 4909 |
| SEMA3A (semaphorin 3A) | -0.17 | migration z between -2 and 2; enough cells | 0.84 | 5736 |
| INSL4 (insulin like 4) | 1.36 | migration z between -2 and 2; enough cells | 1.24 | 6441 |
| TBC1D7 (TBC1 domain family member 7) | 0.08 | migration z between -2 and 2; enough cells | 0.9 | 6527 |
| LYZL1 (lysozyme like 1) | 1.68 | migration z between -2 and 2; enough cells | 1.13 | 6035 |
| PROK1 (prokineticin 1) | 0.72 | migration z between -2 and 2; enough cells | 0.94 | 6408 |
| OR52I2 (olfactory receptor family 52 subfamily I member 2) | 0.88 | migration z between -2 and 2; enough cells | 1.12 | 5842 |
| PFN1 (profilin 1) | 1.51 | migration z between -2 and 2; enough cells | 1.27 | 6478 |
| EEA1 (early endosome antigen 1) | 1.01 | migration z between -2 and 2; enough cells | 1 | 6224 |
| SLC2A3 | -0.54 | migration z between -2 and 2; enough cells | 0.7 | 5541 |
| ZC3H10 (zinc finger CCCH-type containing 10) | -1.01 | migration z between -2 and 2; enough cells | 0.62 | 6431 |
| RASGRP1 (RAS guanyl releasing protein 1) | -0.04 | migration z between -2 and 2; enough cells | 0.87 | 6370 |
| RTKN2 (rhotekin 2) | 1.42 | migration z between -2 and 2; enough cells | 1.25 | 5294 |
| SLC12A4 | -0.73 | migration z between -2 and 2; enough cells | 0.66 | 4986 |
| PIP4P2 (phosphatidylinositol-4,5-bisphosphate 4-phosphatase 2) | -0.1 | migration z between -2 and 2; enough cells | 0.86 | 6552 |
| ANXA9 (annexin A9) | -1.38 | migration z between -2 and 2; enough cells | 0.54 | 4954 |
| GCM2 (GCM transcription factor 2) | 1.82 | migration z between -2 and 2; enough cells | 1.15 | 6089 |
| BAGE (B melanoma antigen) | -1.59 | migration z between -2 and 2; enough cells | 0.47 | 6256 |
| EXOSC8 (exosome component 8) | 0.29 | migration z between -2 and 2; enough cells | 0.86 | 4947 |
| PAEP (progestagen associated endometrial protein) | 0.1 | migration z between -2 and 2; enough cells | 0.82 | 6978 |
| CDR2L (cerebellar degeneration related protein 2 like) | -0.24 | migration z between -2 and 2; enough cells | 0.82 | 6600 |
| TTYH2 (tweety family member 2) | 0.18 | migration z between -2 and 2; enough cells | 0.93 | 5410 |
| C2orf76 (chromosome 2 open reading frame 76) | 1.14 | migration z between -2 and 2; enough cells | 1.18 | 4680 |
| IRF1 (interferon regulatory factor 1) | 0.08 | migration z between -2 and 2; enough cells | 0.82 | 6050 |
| PXDC1 (PX domain containing 1) | 1.34 | migration z between -2 and 2; enough cells | 1.23 | 6102 |
| HINT2 (histidine triad nucleotide binding protein 2) | -1.82 | under 3300 nuclei; migration not judged | 0.42 | 3171 |
